{"sequences": {"note": "The chains behind the UniProt entries cited, without tags or fusion partners.", "UniProt P06533, whole entry L99S": "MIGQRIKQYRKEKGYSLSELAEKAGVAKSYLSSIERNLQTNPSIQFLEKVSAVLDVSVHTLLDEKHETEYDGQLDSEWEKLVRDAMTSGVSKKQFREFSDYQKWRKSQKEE"}, "source": "paper PMC6192195", "about": "“Hampered motility promotes the evolution of wrinkly phenotype in Bacillus subtilis” (BMC Evolutionary Biology, 2018)", "target": "SinR-L99S (UniProt P06533)", "test": "ITC", "settings": "binding site 2 of two-sites model; ITC: buffer C (20 mM HEPES/NaOH, 500 mM NaCl; pH not stated for buffer C, 8.0 for buffers A/B), 25 °C; 30 µM SinR in cell, 150 µM IR-DNA titrated in; recombinant protein; residues 1-111; protein details: C-terminal His6", "note": "Construct, isoform or probe ends are uncertain for at least one entry.", "data": [{"sequence": "TTTGTTCTCTAAAGAGAACTTA (double strand) [IR-DNA (SinR operator inverted repeat)]", "values": [{"measurement": "Kd", "result": 288, "unit": "nM"}]}]}
